Results are given in words; binding and its absence hold for the method and conditions named. In cells and extracts the contact can be indirect. Some entries that bind do so weakly or less than the wild type.
B1: Transforming growth factor (TGF)-β-inducible gene-h3 (βig-h3) (protein, UniProt Q15582 24-683)
chain: GPAKSPYQLVLQHSRLRGRQHGPNVCAVQKVIGTNRKYFTNCKQWYQRKICGKSTVISYECCPGYEKVPGEKGCPAALPLSNLYETLGVVGSTTTQLYTDRTEKLRPEMEGPGSFTIFAPSNEAWASLPAEVLDSLVSNVNIELLNALRYHMVGRRVLTDELKHGMTLTSMYQNSNIQIHHYPNGIVTVNCARLLKADHHATNGVVHLIDKVISTITNNIQQIIEIEDTFETLRAAVAASGLNTMLEGNGQYTLLAPTNEAFEKIPSETLNRILGDPEALRDLLNNHILKSAMCAEAIVAGLSVETLEGTTLEVGCSGDMLTINGKAIISNKDILATNGVIHYIDELLIPDSAKTLFELAAESDVSTAIDLFRQAGLGNHLSGSERLTLLAPLNSVFKDGTPPIDAHTRNLLRNHIIKDQLASKYLYHGQTLETLGGKKLRVFVYRNSLCIENSCIAAHDKRGRYGTLFTMDRVLTPPMGTVMDVLKGDNRFSMLVAAIQSAGLTETLNREGVYTVFAPTNEAFRALPPRERSRLLGDAKELANILKYHIGDEILVSGGIGALVRLKSLQGDKLEVSLKNNVVSVNKEPVAEPDIMATNGVVHVITNVLQPPANRPQERGDELADSALEIFKQASAFSRASQRSVRLAPVYQKLLERMKH

By UniProt entry, the sequences of proteins in these tests, tags left out. Where a name states a change or a piece, a line headed by the entry shows the natural chain unless it says otherwise.
UniProt P17301: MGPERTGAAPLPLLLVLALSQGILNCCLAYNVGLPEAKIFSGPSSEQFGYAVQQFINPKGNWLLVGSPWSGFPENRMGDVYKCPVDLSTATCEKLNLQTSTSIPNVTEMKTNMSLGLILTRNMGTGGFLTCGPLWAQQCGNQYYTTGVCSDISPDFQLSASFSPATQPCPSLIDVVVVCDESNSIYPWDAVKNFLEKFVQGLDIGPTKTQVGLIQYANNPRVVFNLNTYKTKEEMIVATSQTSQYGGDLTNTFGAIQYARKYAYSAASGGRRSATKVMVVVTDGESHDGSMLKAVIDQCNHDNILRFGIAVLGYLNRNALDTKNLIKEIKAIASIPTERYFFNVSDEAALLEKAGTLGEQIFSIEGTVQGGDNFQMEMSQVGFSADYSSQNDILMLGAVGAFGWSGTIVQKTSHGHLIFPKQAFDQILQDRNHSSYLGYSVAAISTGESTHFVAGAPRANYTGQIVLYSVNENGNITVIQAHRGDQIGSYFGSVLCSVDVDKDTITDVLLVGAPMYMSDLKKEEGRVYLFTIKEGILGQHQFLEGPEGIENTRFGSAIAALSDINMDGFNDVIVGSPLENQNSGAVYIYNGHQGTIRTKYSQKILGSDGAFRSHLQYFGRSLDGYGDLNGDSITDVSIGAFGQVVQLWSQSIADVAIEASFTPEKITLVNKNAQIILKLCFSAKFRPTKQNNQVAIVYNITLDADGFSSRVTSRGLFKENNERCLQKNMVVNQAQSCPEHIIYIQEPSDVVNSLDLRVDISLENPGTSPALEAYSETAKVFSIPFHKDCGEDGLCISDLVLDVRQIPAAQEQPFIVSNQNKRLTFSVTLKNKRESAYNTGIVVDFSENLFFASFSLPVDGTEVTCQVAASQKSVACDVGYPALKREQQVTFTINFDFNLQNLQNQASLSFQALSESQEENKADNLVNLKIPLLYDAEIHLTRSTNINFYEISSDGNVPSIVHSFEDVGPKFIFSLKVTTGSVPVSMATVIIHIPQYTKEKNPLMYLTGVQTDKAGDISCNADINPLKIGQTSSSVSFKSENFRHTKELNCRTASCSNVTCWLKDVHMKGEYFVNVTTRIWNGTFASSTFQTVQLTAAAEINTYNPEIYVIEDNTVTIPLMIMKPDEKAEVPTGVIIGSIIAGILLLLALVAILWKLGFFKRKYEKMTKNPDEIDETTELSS
UniProt P05556: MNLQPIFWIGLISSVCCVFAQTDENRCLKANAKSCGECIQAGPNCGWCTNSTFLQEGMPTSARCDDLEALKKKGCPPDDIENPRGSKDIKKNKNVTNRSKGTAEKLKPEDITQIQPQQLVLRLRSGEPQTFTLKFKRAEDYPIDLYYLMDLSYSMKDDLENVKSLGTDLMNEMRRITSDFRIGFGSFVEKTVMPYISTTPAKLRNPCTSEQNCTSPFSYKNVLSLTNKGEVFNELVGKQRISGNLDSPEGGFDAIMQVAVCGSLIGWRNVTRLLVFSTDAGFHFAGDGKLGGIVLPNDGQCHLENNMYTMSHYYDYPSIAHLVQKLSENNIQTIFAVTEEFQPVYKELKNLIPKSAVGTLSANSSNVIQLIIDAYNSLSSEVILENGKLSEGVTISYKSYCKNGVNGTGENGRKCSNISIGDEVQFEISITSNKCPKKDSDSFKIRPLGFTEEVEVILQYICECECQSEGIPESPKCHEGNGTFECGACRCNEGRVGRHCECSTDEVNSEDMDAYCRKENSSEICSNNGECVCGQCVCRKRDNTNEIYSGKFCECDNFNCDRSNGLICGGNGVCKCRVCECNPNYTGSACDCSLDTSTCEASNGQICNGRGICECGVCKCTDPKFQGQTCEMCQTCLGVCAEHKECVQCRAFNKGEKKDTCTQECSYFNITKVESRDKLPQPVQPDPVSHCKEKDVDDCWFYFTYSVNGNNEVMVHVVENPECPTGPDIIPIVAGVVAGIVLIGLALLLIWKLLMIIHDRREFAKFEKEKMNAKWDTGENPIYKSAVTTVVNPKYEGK

How the values were obtained:
[1] = molecular target: T1, Transforming growth factor (TGF)-β-inducible gene-h3 (βig-h3) (human (endogenous in Saos-2)) (UniProt Q15582); test: co-IP; Saos-2 cells lysed in 1% OG buffer; lysates precipitated with protein A-agarose pre-bound with anti-βig-h3, anti-integrin α2 or anti-integrin β1 antibodies, four washes; Western blot of the immune complexes; anti-IgG as negative control
T1 sequence: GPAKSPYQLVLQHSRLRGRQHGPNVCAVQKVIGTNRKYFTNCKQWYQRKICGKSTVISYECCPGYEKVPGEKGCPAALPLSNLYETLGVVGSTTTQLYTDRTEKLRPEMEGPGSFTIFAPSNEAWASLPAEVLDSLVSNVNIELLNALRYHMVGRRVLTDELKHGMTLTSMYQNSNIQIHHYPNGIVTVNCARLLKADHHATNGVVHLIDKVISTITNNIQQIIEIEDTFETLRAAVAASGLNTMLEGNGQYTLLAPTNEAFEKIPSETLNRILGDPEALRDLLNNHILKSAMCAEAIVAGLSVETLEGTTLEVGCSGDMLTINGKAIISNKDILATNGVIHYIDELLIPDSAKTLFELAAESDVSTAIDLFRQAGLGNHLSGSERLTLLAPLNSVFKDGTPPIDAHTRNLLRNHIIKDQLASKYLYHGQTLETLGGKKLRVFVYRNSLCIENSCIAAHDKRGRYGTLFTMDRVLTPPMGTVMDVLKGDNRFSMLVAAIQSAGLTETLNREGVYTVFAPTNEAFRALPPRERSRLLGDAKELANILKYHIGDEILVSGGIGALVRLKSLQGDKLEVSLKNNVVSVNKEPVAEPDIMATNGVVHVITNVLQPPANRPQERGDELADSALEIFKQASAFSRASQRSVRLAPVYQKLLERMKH

[2] = molecular target: integrin α2β1 (human (endogenous in Saos-2)) (UniProt P17301+P05556); test: as above

Molecule	binding [1]	binding [2]
integrin α2β1 (from UniProt P17301 30-1181; P05556 21-798) (complex)	binds	
B1		binds

Source: paper PMC3942417
